Taken from: PubChem BioAssay AID1259308 (NCATS, 2017)

- Screen: 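Knock-downs that increase output of a recombinant reporter protein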 (primary screen)
- Cell system: human HEK293 embryonic kidney cells stably expressing firefly luciferase (HEK-CMV-Luc2-Hygro)
- Knock-down reagent: single siRNA against human genes, 0.8 pmol siRNA per well
- Time to read-out: 72 h
- Measured: 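Reporter luminescence and viable-cell signal on separate replicate plates, given as percent of non-targeting control and median/MAD z-scores, plus per-cell luciferase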
- Scale: total luciferase, z-score and total luciferase, % of control: higher = more reporter protein produced; luciferase per cell, z-score: higher = more reporter output per viable cell; viable cells, % of control: higher = more viable cells
- Hit rule: 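Active when the median/MAD z-score for overall luciferase is greater than 3; a gene was taken forward for validation with new siRNAs if at least two of its three siRNAs passed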
- Meaning of the calls: active = raised luciferase; inactive = no rise
The whole screen tested about 59,000 reagents; below is an unselected part. Of all reagents, about 1,510 (2.6%) got an active call. 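Calls use total luciferase alone and ignore viability, so some active siRNAs may act by altering cell number.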 Unmarked entries are inactive. Reagents against one gene are numbered here. Reagent sequences are not shown.

target | reagent no. | total luciferase, z-score | total luciferase, % of control | luciferase per cell, z-score | viable cells, % of control
TMEM150A (transmembrane protein 150A) | 1 | 1.25 | 107 | 1.02 | 91.3
TMEM150A (transmembrane protein 150A) | 2 | 0.443 | 90.7 | 0.808 | 81.9
TMEM150A (transmembrane protein 150A) | 3 | 0.267 | 87.2 | -1.08 | 129
TTC24 (tetratricopeptide repeat domain 24) | 1 | -1.51 | 51.8 | -1.83 | 93.7
TTC24 (tetratricopeptide repeat domain 24) | 2 | -0.26 | 76.7 | -0.57 | 99.6
TTC24 (tetratricopeptide repeat domain 24) | 3 | -0.0744 | 80.4 | 0.876 | 71.3
OXNAD1 (oxidoreductase NAD binding domain containing 1) | 1 | 1.07 | 103 | 1.38 | 80.1
OXNAD1 (oxidoreductase NAD binding domain containing 1) | 2 | -0.366 | 74.6 | -0.324 | 90.8
OXNAD1 (oxidoreductase NAD binding domain containing 1) | 3 | -0.555 | 70.8 | -0.688 | 94.9
CTSD (cathepsin D) | 1 | 0.0609 | 83.1 | -0.166 | 97
CTSD (cathepsin D) | 2 | -0.643 | 69.1 | -0.928 | 98.6
CTSD (cathepsin D) | 3 | 0.615 | 94.1 | 0.477 | 92.7
CHRNB1 (cholinergic receptor nicotinic beta 1 subunit) | 1 | 3.46 (active) | 151 | 3.4 | 68.7
CHRNB1 (cholinergic receptor nicotinic beta 1 subunit) | 2 | 0.0837 | 83.6 | 0.179 | 89.1
CHRNB1 (cholinergic receptor nicotinic beta 1 subunit) | 3 | 1.71 | 116 | 0.755 | 106

Only “luciferase per cell, z-score” (4 entries from above):
TMEM150A (transmembrane protein 150A) #2: 0.808
TMEM150A (transmembrane protein 150A) #3: -1.08
TTC24 (tetratricopeptide repeat domain 24) #1: -1.83
TTC24 (tetratricopeptide repeat domain 24) #2: -0.57

More reagents follow:
target | reagent no. | total luciferase, z-score | total luciferase, % of control | luciferase per cell, z-score | viable cells, % of control
SFN (stratifin) | 1 | -0.0549 | 80.8 | -0.285 | 97.3
SFN (stratifin) | 2 | -0.587 | 70.2 | 0.427 | 70.1
SFN (stratifin) | 3 | 1.45 | 111 | 1.34 | 86.8
PCSK6 (proprotein convertase subtilisin/kexin type 6) | 1 | -0.274 | 76.4 | -0.46 | 96.4
PCSK6 (proprotein convertase subtilisin/kexin type 6) | 2 | 1.05 | 103 | 1.07 | 86.6
PCSK6 (proprotein convertase subtilisin/kexin type 6) | 3 | 0.834 | 98.5 | 0.534 | 95.6
BRWD3 (bromodomain and WD repeat domain containing 3) | 1 | -1.78 | 46.4 | -0.059 | 52.6
BRWD3 (bromodomain and WD repeat domain containing 3) | 2 | -0.848 | 65 | -0.397 | 80.7
BRWD3 (bromodomain and WD repeat domain containing 3) | 3 | 0.799 | 97.8 | 1 | 83.9
PCSK5 (proprotein convertase subtilisin/kexin type 5) | 1 | 0.967 | 101 | 0.625 | 95.8
PCSK5 (proprotein convertase subtilisin/kexin type 5) | 2 | 1.4 | 110 | 0.695 | 102
PCSK5 (proprotein convertase subtilisin/kexin type 5) | 3 | -0.714 | 67.7 | -0.347 | 82.9
PCK1 (phosphoenolpyruvate carboxykinase 1) | 1 | 1.23 | 106 | 0.524 | 103
PCK1 (phosphoenolpyruvate carboxykinase 1) | 2 | 0.655 | 94.9 | 0.517 | 92.6
PCK1 (phosphoenolpyruvate carboxykinase 1) | 3 | -1.14 | 59.2 | -0.874 | 83.3
CFAP410 (cilia and flagella associated protein 410) | 1 | 0.158 | 85 | 0.373 | 86.1
CFAP410 (cilia and flagella associated protein 410) | 2 | -0.0494 | 80.9 | 0.577 | 77.7
CFAP410 (cilia and flagella associated protein 410) | 3 | -0.602 | 69.9 | -0.423 | 87.3
PRELID1 (PRELI domain containing 1) | 1 | -0.626 | 69.4 | 0.72 | 64.2
PRELID1 (PRELI domain containing 1) | 2 | -0.642 | 69.1 | -0.511 | 88.4
PRELID1 (PRELI domain containing 1) | 3 | -0.054 | 80.8 | 0.42 | 80.9
RPL32P36 (ribosomal protein L32 pseudogene 36) | 1 | -0.253 | 76.9 | 0.146 | 82.6
RPL32P36 (ribosomal protein L32 pseudogene 36) | 2 | -2.96 | 23.1 | -2.78 | 53.7
RPL32P36 (ribosomal protein L32 pseudogene 36) | 3 | -1.24 | 57.2 | -1.36 | 91.4
